Data as given in paper PMC5059453.
These are yes or no findings as the source states them, for the method shown. For some of these results: Binding seen in cells or lysates may run through a third protein. Some results given as binding are weak or reduced against the parent protein; the word gives no strength. For some of these results: Sequences can lack the tags named with a protein.

B1: [F3]::RPN10 (Rpn10 with the C-terminal DHFR fragment) (protein, UniProt P38886 1-268)
chain: MVLEATVLVIDNSEYSRNGDFPRTRFEAQIDSVEFIFQAKRNSNPENTVGLISGAGANPRVLSTFTAEFGKILAGLHDTQIEGKLHMATALQIAQLTLKHRQNKVQHQRIVAFVCSPISDSRDELIRLAKTLKKNNVAVDIINFGEIEQNTELLDEFIAAVNNPQEETSHLLTVTPGPRLLYENIASSPIILEEGSSGMGAFGGSGGDSDANGTFMDFGVDPSMDPELAMALRLSMEEEQQRQERLRQQQQQQDQPEQSEQPEQHQDK
B2: [F3]::rpn10-K84R (Rpn10-K84R with the C-terminal DHFR fragment) (protein, UniProt P38886 1-268)
chain: MVLEATVLVIDNSEYSRNGDFPRTRFEAQIDSVEFIFQAKRNSNPENTVGLISGAGANPRVLSTFTAEFGKILAGLHDTQIEGRLHMATALQIAQLTLKHRQNKVQHQRIVAFVCSPISDSRDELIRLAKTLKKNNVAVDIINFGEIEQNTELLDEFIAAVNNPQEETSHLLTVTPGPRLLYENIASSPIILEEGSSGMGAFGGSGGDSDANGTFMDFGVDPSMDPELAMALRLSMEEEQQRQERLRQQQQQQDQPEQSEQPEQHQDK
B3: apo-Rpn10 (protein, UniProt P38886 1-268)
chain: MVLEATVLVIDNSEYSRNGDFPRTRFEAQIDSVEFIFQAKRNSNPENTVGLISGAGANPRVLSTFTAEFGKILAGLHDTQIEGKLHMATALQIAQLTLKHRQNKVQHQRIVAFVCSPISDSRDELIRLAKTLKKNNVAVDIINFGEIEQNTELLDEFIAAVNNPQEETSHLLTVTPGPRLLYENIASSPIILEEGSSGMGAFGGSGGDSDANGTFMDFGVDPSMDPELAMALRLSMEEEQQRQERLRQQQQQQDQPEQSEQPEQHQDK
B4: apo-Rpn10, P38886 1-268 (protein)
chain: MVLEATVLVIDNSEYSRNGDFPRTRFEAQIDSVEFIFQAKRNSNPENTVGLISGAGANPRVLSTFTAEFGKILAGLHDTQIEGKLHMATALQIAQLTLKHRQNKVQHQRIVAFVCSPISDSRDELIRLAKTLKKNNVAVDIINFGEIEQNTELLDEFIAAVNNPQEETSHLLTVTPGPRLLYENIASSPIILEEGSSGMGAFGGSGGDSDANGTFMDFGVDPSMDPELAMALRLSMEEEQQRQERLRQQQQQQDQPEQSEQPEQHQDK

Key:
[1] = target: T1, F[1,2]::RPN9 (Rpn9 with the N-terminal DHFR fragment) (S. cerevisiae) (UniProt Q04062); assay: split reporter; protein-fragment complementation assay (PCA) with split methotrexate-resistant DHFR in yeast; fusions at native chromosomal loci; growth with 200 μg ml^−1 methotrexate
T1 sequence: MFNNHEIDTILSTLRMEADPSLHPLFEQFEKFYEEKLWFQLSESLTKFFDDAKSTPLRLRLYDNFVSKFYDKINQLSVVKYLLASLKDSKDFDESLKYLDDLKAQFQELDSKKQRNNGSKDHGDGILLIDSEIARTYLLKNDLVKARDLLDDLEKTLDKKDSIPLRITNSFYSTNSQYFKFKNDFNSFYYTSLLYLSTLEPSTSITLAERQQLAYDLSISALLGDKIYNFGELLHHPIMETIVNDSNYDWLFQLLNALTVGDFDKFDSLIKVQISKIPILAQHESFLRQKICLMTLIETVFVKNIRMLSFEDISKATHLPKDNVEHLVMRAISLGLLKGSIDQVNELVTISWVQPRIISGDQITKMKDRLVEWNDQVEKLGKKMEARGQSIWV

[2] = target: T2, His6-Rpn9 (S. cerevisiae) (UniProt Q04062); assay: pull-down; His6-tagged proteins immobilized on Ni2+ beads pull down purified Rpn10 or Ub-Rpn10 (42 μl of 2.8 mg ml^−1); 25 mM HEPES, 75 mM NaCl, 0.25% Triton X-100, 1 mM DTT, pH 7.4; 3 h at 4 °C; western blot with α-Rpn10; both purified
T2 sequence: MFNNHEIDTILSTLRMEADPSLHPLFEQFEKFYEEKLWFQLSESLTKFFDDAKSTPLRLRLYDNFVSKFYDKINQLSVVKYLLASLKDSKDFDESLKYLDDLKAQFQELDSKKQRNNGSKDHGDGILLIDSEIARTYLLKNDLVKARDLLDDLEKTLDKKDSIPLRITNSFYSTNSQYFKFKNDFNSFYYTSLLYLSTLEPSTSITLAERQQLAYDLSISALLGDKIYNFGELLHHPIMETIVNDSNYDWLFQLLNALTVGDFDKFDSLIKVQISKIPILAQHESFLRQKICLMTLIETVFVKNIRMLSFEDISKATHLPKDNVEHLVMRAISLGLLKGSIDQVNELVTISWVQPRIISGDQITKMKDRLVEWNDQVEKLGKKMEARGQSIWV

[3] = target: T3, His6-Rpn12 (S. cerevisiae), P32496; assay: as above; settings: remark: other sources report otherwise
T3 chain: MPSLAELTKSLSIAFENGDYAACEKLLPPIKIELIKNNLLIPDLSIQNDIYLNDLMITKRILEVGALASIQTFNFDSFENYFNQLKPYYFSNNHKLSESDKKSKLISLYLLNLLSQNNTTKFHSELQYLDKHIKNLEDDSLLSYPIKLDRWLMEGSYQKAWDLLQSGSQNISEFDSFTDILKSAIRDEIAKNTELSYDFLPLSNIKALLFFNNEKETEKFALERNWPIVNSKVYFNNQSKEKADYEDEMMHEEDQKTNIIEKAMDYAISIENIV

Binder | binding [1] | further results
B1 | binds weakly | 
B2 | binds | 
B3 |  | binding [2]: binds weakly
B4 |  | binding [3]: no binding (tested: 2.8 mg ml^−1)
